According to paper PMC6892914, “Interactions of Ionic Liquids and Spirocyclic Compounds with Liposome Model Membranes. A Steady-State Fluorescence Anisotropy Study” (Scientific Reports, 2019):

Columns and labels:
Format in all cases: physicochemical
Conditions in all cases: compound 50 mM, 5 min incubation at RT
[1] = Steady-state fluorescence anisotropy of DPH-doped liposomes, POPC/Chol 75:25
Text: (§1) The technique used in the present study was steady-state fluorescence anisotropy spectroscopy (fluorescence anisotropy or anisotropy in the following text). The technique was utilised to detect organisational changes within the lipid bilayer using a fluorescent 1,6-diphenyl-1,3,5-hexatriene (DPH) probe. DPH is advantageous in the present application due to its high quantum yield and its ability to indicate subtle changes in the lipid acyl chain organisation. For general reviews on the technique, see Shinitzky & Barenholz[18] and Lentz[19]. […] This depolarization can be measured as a numerical value of anisotropy (r), as shown by Eq. 1.1 r=I||−I⊥/IT where I|| and I⊥ are the intensities of emitted light parallel and perpendicular to the plane of excitation, respectively. […]
(§2) A reference anisotropy value for each pure liposome was determined daily. […] The anisotropy was measured ten times and the mean ± standard deviation was calculated. […] Similar to the reference measurements, the fluorescence anisotropy value after incubation with the ILs was recorded 10 times and the mean ± standard deviation was calculated. […]
(§3) The fluorescence anisotropy values were measured using a Horiba Jobin Yvon (Northampton, UK) FluoroMax-4 spectrofluorometer, in L-format. […]

[2] = Steady-state fluorescence anisotropy of DPH-doped liposomes, POPC/POPS/Chol 55:20:25
Text: as §1, §2, §3

[3] = Steady-state fluorescence anisotropy of DPH-doped liposomes, POPC/POPS 80:20
Text: as §1, §2, §3

[4] = Steady-state fluorescence anisotropy of DPH-doped liposomes, POPC
Text: as §1, §2, §3

SMILES: C1CN=C2CCCN2C1.CS(=O)(=O)O [[DBNH][OMs], 1,5-Diazabicyclo[4.3.0]non-5-enium mesylate]
- Relative change in anisotropy, Δr [1]: -47%
- Relative change in anisotropy, Δr [2]: -42%
- Relative change in anisotropy, Δr [3]: -46%
- Relative change in anisotropy, Δr [4]: -34%
